Measurements reported in PubChem BioAssay AID1259308 (NCATS, 2017)
Shown is a random part of about 59,000 reagents. In the full data, about 1,510 (2.6%) are marked active. 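Calls use total luciferase alone and ignore viability, so some active siRNAs may act by altering cell number.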 Unmarked entries are inactive. Reagents against one gene are numbered here. Not all columns of the deposit are shown. No sequences are given here.

Assay: 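Knock-downs that increase output of a recombinant reporter protein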 (primary screen)
System: human HEK293 embryonic kidney cells stably expressing firefly luciferase (HEK-CMV-Luc2-Hygro)
Reagents: single siRNA against human genes, 0.8 pmol siRNA per well
Duration: 72 h
Read-out: 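Reporter luminescence and viable-cell signal on separate replicate plates, given as percent of non-targeting control and median/MAD z-scores, plus per-cell luciferase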
Scale: total luciferase, z-score: higher = more reporter protein produced
Call rule: 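An siRNA counts as active if its total luciferase robust z-score exceeds 3; genes with two or more such siRNAs out of three were retested with fresh siRNAs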
Calls: active = raised luciferase; inactive = no rise

total luciferase, z-score, by gene and reagent
PSG11: #1 -0.261; #2 0.861; #3 2.77
SYT2: #1 1.24; #2 0.159; #3 1.12
CNNM3: #1 0.0538; #2 -1.21; #3 0.636
PRDM8: #1 1.15; #2 0.0537; #3 -1.85
SEPTIN2: #1 -1.67; #2 0.135; #3 0.203
SBK1: #1 -0.277; #2 1.36; #3 1.55
CD38: #1 0.236; #2 -1.78; #3 -1.2
SF1: #1 1.22; #2 -0.0522; #3 2.12
H4C14: #1 4.78 (active); #2 -1.21; #3 0.139
LPCAT1: #1 -0.419; #2 0.0141; #3 1.75

Copied from the list:
Under “total luciferase, z-score”, SEPTIN2 #1 reads -1.67
Value for PSG11 #2 in “total luciferase, z-score”: 0.861
Under “total luciferase, z-score”, PRDM8 #2 has 0.0537
CD38 #2, total luciferase, z-score = -1.78

Continued.
total luciferase, z-score, by gene and reagent
RBM23: #1 -1.82; #2 0.172; #3 2.42
WIPF3: #1 -1.29; #2 -0.678; #3 1.25
LINC01829: #1 -1.64; #2 -0.951; #3 -1.47
LOC402279: #1 1.61; #2 1.44; #3 0.681
SLC35F1: #1 -0.347; #2 1.47; #3 -0.875
ST18: #1 -0.138; #2 -0.971; #3 -0.415
DSG3: #1 0.883; #2 0.389; #3 0.256
TMBIM6: #1 -3.22; #2 -0.0764; #3 -0.0832
PGM5P4: #1 2.13; #2 0.592; #3 -0.843
